Assay results reported in paper PMC6620320.
No constants are given. Whether binding was seen depends on the method and setting. In cells and extracts the contact can be indirect. Some results given as binding are weak or reduced against the parent protein; the word gives no strength.

Sequences of proteins named here, by UniProt entry; tags and fusion partners are left off.
UniProt P16790: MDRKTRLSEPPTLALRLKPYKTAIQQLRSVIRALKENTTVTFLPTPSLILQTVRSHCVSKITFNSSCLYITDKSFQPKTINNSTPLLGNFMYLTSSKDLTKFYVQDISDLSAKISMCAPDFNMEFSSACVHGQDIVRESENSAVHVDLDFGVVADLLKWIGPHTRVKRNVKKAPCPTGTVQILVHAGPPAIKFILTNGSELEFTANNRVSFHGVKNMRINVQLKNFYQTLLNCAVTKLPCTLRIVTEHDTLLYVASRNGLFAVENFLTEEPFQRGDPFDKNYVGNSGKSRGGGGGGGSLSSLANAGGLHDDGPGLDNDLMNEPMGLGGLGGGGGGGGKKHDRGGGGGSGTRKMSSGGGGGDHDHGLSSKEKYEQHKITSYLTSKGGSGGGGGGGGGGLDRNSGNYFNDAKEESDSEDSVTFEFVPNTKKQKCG
UniProt P12956: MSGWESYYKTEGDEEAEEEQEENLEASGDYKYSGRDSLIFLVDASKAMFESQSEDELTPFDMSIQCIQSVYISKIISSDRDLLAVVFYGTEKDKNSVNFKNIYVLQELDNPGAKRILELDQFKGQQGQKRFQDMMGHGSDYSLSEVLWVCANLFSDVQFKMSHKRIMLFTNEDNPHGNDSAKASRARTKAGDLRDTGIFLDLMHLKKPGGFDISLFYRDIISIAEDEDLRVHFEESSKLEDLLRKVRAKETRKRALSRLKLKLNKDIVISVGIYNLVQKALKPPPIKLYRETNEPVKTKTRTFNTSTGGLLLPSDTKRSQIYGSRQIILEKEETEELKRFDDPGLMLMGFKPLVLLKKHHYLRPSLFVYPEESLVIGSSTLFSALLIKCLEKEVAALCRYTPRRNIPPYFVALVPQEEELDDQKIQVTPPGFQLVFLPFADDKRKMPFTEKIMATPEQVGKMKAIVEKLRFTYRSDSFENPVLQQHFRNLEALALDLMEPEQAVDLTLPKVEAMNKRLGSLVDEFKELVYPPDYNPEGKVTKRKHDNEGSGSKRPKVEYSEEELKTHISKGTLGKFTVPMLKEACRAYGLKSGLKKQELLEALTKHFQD

Target: HCMV UL44 (human cytomegalovirus (strain RV1305)) (UniProt P16790)
Test: co-IP; UL44 precipitated with the human anti-UL44 IgG1 3A11 and Protein G sepharose from lysates of RV1305-infected ARPE-19 cells (uninfected cells as control); lysis buffer 50 mM HEPES pH 7.4, 1% Triton X-100, 150 mM NaCl, 10% glycerol, 0.1 mM DTT, 2 mM EDTA; lysate pre-cleared with isotype antibody; overnight at 4 °C; immunoblots for UL44, nucleolin, ku70 and pp65; interaction with nucleolin and ku70 also seen at 24 h post infection

| Substance | binding |
| --- | --- |
| HCMV pp65 (from UniProt P06725 1-561) | binds |
| ku70 (from UniProt P12956 1-609) | binds |
